Legend:
[1] = Bleaching of Kraft pulp, hand sheet tests; details: for Kappa No.: unbleached pulp 30
[2] = continuous exposure to lower concentrations

| Compound | Kappa No. ([1]; Entry 2, bleach time 30 min, 1.13 g/L PAA equiv., initial pH 8.2) | increase of corrosion rate on steel on increasing temperature to 140 F [2] | corrosion rate on steel relative to peracetate oxidant ([2]; room temperature) [times] | Kappa No. ([1]; Entry 7, 30 min, 4.0 g/L, initial pH 7.0) | Kappa No. ([1]; Entry 9, 30 min, 4.0 g/L, initial pH 8.9) | Kappa unit reduction (bleaching efficiency) ([1]; hand sheet tests, initial pulp Kappa number 30) |
| --- | --- | --- | --- | --- | --- | --- |
| [O][Cl+][O-] [chlorine dioxide] | 22 | doubled | 1.7 to 2.1 |  |  |  |
| CC(=O)OO [peracetic acid] |  | quadrupled |  | 31 | 29 | only up to one Kappa unit reduction |

Source: US12215460B2, “Methods of microbial control” (Clean Chemistry, Inc., priority 2015, dated 2025)
